No constants are given. Whether binding was seen depends on the method and setting. For some assays here: Binding seen in cells or lysates may run through a third protein. Some binding calls cover weakened binding; strength is not graded here. For some assays here: Tags and fused reporters may be left off the sequences shown.

For assay [1], the target named is T1, USL1-Cub (Arabidopsis thaliana) (UniProt Q8S9J3).
T1 sequence: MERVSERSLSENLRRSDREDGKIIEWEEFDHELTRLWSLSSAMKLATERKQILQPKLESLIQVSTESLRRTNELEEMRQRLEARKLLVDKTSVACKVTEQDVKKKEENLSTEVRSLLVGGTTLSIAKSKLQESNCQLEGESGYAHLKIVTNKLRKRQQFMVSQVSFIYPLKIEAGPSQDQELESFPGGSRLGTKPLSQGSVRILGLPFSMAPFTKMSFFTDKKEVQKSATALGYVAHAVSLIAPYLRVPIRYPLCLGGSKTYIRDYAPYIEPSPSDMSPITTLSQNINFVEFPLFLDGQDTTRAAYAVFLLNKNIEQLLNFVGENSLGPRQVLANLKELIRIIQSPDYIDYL
As to the kind of experiment: two-hybrid; split-ubiquitin yeast two-hybrid; USL1 forms as Cub fusions (MetYCgate), NubG-VPS30 (pPR3-N); yeast strain NMY51; growth on SD-Trp-Leu-His-Ade.

Assay [2] has as its target T2, USL1-nLUC (Arabidopsis thaliana) (UniProt Q8S9J3).
T2 sequence: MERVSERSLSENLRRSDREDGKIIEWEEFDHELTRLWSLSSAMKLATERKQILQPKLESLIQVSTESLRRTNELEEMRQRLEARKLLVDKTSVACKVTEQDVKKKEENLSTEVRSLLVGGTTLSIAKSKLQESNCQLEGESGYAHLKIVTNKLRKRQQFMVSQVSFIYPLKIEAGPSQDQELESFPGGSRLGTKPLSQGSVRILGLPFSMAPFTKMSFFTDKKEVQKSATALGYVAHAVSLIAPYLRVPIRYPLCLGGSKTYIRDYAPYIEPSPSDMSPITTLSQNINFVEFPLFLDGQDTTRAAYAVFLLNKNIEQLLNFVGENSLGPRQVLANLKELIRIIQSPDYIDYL
The assay can be described thus: split reporter; firefly luciferase complementation imaging; USL1-nLUC and cLUC-VPS30 co-infiltrated into N. benthamiana leaves; low-light cooled CCD imaging.

B1: NubG-VPS30 (protein, UniProt Q9M367 1-517)
chain: MRKEEIPDKSRTIPIDPNLPKWVCQNCHHSLTIVGVDSYAGKFFNDPPPSATQGSSIHGANSVLGSTRMDNSFVVLPRHKPPQSQGIPPRPRGASSPQPDATQSGKAMEESFVVVYKSEPVSDSGGSHNLSLEVGQNGPLHSNTSGFNATINVLTRAFDIARTQTQVEQPLCLECMRVLSDKLEKEVEDVTRDVEAYEACVQRLEGETQDVLSEADFLKEKKKIEEEERKLVAAIEETEKQNAEVNHQLKELEFKGNRFNELEDRYWQEFNNFQFQLIAHQEERDAILAKIEVSQAHLELLNKTNVLIDAFPIRNDGEFGTINNFRLGRLPAIKVEWDEINAAWGQACLLLHTMCNYFRPKFQCQVKIQPMGSYPRIVDSNNETYELFGPVNLFWSTRYDKAMTLYLMCLKDFADFANSKDQENNIPPDNCLNLPYKIEKDKVLGYSITQSFNKQESWTKALKYTLCNLKWALYWFVGNTNFQPLSATVSLPSNISAAGSLYAKRGPDSSKPSCKKT
As to B1, in assay [1], the binding entry was “binds”.

B2: cLUC-AtVPS30 (protein, UniProt Q9M367 1-517)
chain: MRKEEIPDKSRTIPIDPNLPKWVCQNCHHSLTIVGVDSYAGKFFNDPPPSATQGSSIHGANSVLGSTRMDNSFVVLPRHKPPQSQGIPPRPRGASSPQPDATQSGKAMEESFVVVYKSEPVSDSGGSHNLSLEVGQNGPLHSNTSGFNATINVLTRAFDIARTQTQVEQPLCLECMRVLSDKLEKEVEDVTRDVEAYEACVQRLEGETQDVLSEADFLKEKKKIEEEERKLVAAIEETEKQNAEVNHQLKELEFKGNRFNELEDRYWQEFNNFQFQLIAHQEERDAILAKIEVSQAHLELLNKTNVLIDAFPIRNDGEFGTINNFRLGRLPAIKVEWDEINAAWGQACLLLHTMCNYFRPKFQCQVKIQPMGSYPRIVDSNNETYELFGPVNLFWSTRYDKAMTLYLMCLKDFADFANSKDQENNIPPDNCLNLPYKIEKDKVLGYSITQSFNKQESWTKALKYTLCNLKWALYWFVGNTNFQPLSATVSLPSNISAAGSLYAKRGPDSSKPSCKKT
Consider B2, for which, in assay [2], the binding result was “binds”.

The values are drawn from paper PMC6099276.
